# In PubChem BioAssay AID1508600 (Functional Genomics Laboratory (NCATS/FGL), 2020):
# Screen size: about 53,000 sequences; about 3,700 (7%) were called active.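 Rule for the calls: active = gene knockdowns whose robust z-score for IL-1 alpha signal is at least 2 or at most -2, so actives lie on both sides; inactive = the rest.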 The list shows a part of the results.
# Assay: Components of the Cytosolic LPS Sensing Pathway: Gene Identification via Genome-wide siRNA Screen;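 note: robust z of the log signal after scaling to non-targeting control siRNA wells of the plate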
# Conditions: RAW264.7 macrophages, IL-1a HTRF, actives lie on both sides, screened at 100 nM (by protocol), cells primed 5 h with Pam3CSK4 first
# How it was run: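 Three distinct siRNAs per gene were tested singly at 100 nM in RAW264.7 macrophages. Following Pam3CSK4 priming and 24 hour LipidA transfection, IL-1a secretion was read by HTRF.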
row,Sequence,z-score
1,CCUACGUGCUGUGAGAUUCTT against Ccl25,inactive: -0.314
2,GGUGCCAGAAGAUUUACGATT against Fmr1,inactive: 1.12
3,GGCUUUUUAUUCUCAGCCUTT against Rmdn1,inactive: 0.34
4,GGCCACAGUGACUUUCAUCTT against Eif4e2,inactive: -0.857
5,CGGGUCCAGCCAAUUGCAUTT against Plxnc1,inactive: -0.98
6,GGAUGUUGGUACUUUUUGATT against Pwp1,inactive: -0.254
7,GGUGUACAACAUCAGCGACTT against Fads1,inactive: -0.454
8,GCCCGUGUCAUCAUUUUCUTT against Doxl2,inactive: 0.208
9,GGCAUCCAAGCAAAAUGGCTT against Eng,inactive: -1.39
10,GGUGGAGUUUCUCAAAAGCTT against Kcnc3,inactive: 0.0264
11,GGUACAUAUCCAUUCACAGTT against Cnr1,inactive: -0.148
12,CGUUUGGGAUCGAAAGUCATT against Tbl1x,inactive: -0.644
13,GCCGGCAACACAUUUCUGUTT against Sobp,inactive: 0.105
14,GGUGGAACACAUAUUUUAATT against Tbc1d13,inactive: 0.837
15,CCAACUUCGAUGCUGAGAGTT against Anxa2,inactive: -1.8
16,GGAGAACUUCAAAACUUUUTT against Tbx1,inactive: -0.0203
17,CGGAUCAUCAUGUACACUGTT against Tpsg1,inactive: -0.633
18,GGAAUAUCAGCCAUAAGUUTT against Cplx4,inactive: 1.78
19,GCUAACCACCACAGUAUGATT against Tmem42,inactive: -0.884
20,GGCUGGAGUAGAAGAACUGTT against Hsbp1,inactive: 0.239
21,GCUGGCUGAAACAUCUACCTT against Trappc1,inactive: 0.706
22,GGAAGAAUGUGAUGACUCATT against Zfp11,inactive: -0.471
23,GGGAGAAGAAUUUGAACAGTT against Ak1,inactive: 0.557

# Laid out differently: results already given.
row	Sequence	z-score
6	GGAUGUUGGUACUUUUUGATT against Pwp1	inactive: -0.254
7	GGUGUACAACAUCAGCGACTT against Fads1	inactive: -0.454
8	GCCCGUGUCAUCAUUUUCUTT against Doxl2	inactive: 0.208
9	GGCAUCCAAGCAAAAUGGCTT against Eng	inactive: -1.39
10	GGUGGAGUUUCUCAAAAGCTT against Kcnc3	inactive: 0.0264
11	GGUACAUAUCCAUUCACAGTT against Cnr1	inactive: -0.148
12	CGUUUGGGAUCGAAAGUCATT against Tbl1x	inactive: -0.644
13	GCCGGCAACACAUUUCUGUTT against Sobp	inactive: 0.105
14	GGUGGAACACAUAUUUUAATT against Tbc1d13	inactive: 0.837
15	CCAACUUCGAUGCUGAGAGTT against Anxa2	inactive: -1.8
16	GGAGAACUUCAAAACUUUUTT against Tbx1	inactive: -0.0203
17	CGGAUCAUCAUGUACACUGTT against Tpsg1	inactive: -0.633
18	GGAAUAUCAGCCAUAAGUUTT against Cplx4	inactive: 1.78
19	GCUAACCACCACAGUAUGATT against Tmem42	inactive: -0.884
20	GGCUGGAGUAGAAGAACUGTT against Hsbp1	inactive: 0.239
21	GCUGGCUGAAACAUCUACCTT against Trappc1	inactive: 0.706
22	GGAAGAAUGUGAUGACUCATT against Zfp11	inactive: -0.471
23	GGGAGAAGAAUUUGAACAGTT against Ak1	inactive: 0.557

# The listing continues.

row,Sequence,z-score
1,GCCAUGGUACACUACAUCUTT against Olfml1,inactive: 0.318
2,GCACCUUCCUAAUCACAGCTT against Rxfp4,inactive: 0.0928
3,GGAAGACCAAGAGGAAAACTT against Taf1d,inactive: -0.616
4,GGUUUUGUACAAAAGGUCCTT against Ube2e2,inactive: 0.31
5,GCACAUUGCUCCCAAGAAUTT against Smg6,inactive: -1.03
6,UAGAUGCAUGUUCCUCCUCTT against Olfr1158,inactive: 0.59
7,GCCCAAUCACACCAAGACATT against Doc2b,inactive: 0.357
8,CCAUCAGUAUUCACAACAATT against Usp42,active: -3.12
9,CCCGAAGAGCAAAAAAGAUTT against 1110004F10Rik,inactive: -1.5
10,GGCCAAGAUUAAGUUCUUGTT against Il12rb1,inactive: 1.05
11,ACAAGAUUGGGAUCAUCUATT against Rpl23a,inactive: 0.521
12,GGUAACAUCUAUAUAUCACTT against Rb1,inactive: 1.56
13,GGUAUCGAAGAACUGGAAATT against Spast,inactive: 0.547
14,GGUUGUUUUGCUUGUUGUATT against Tsc22d1,inactive: 1.67
15,CCUUGAACAUAUAUGUCAUTT against Fem1a,inactive: -0.0399
16,GGUUUUGUCUGAUAAAACATT against Arsb,inactive: 1.02
17,GCACAACGGUUCGUUGUUATT against 4933427E11Rik,inactive: -1.17
18,GCACUUAUUUAGAAGACUGTT against Commd3,inactive: 0.25
19,GCUAUUCCCAUGACGUGUUTT against Gab1,inactive: -0.204
20,GCUCAAGUGCGGAGAAUAATT against Sgms1,inactive: -1.55
21,GGCGAUGUGAAAAUCUUAATT against Xpnpep2,active: 3.65
22,GUGUCAACCUAAGCUUGGCTT against Tlx3,inactive: -1.19
23,GGGAAGGGAGACAAGCAAATT against Slc2a10,inactive: -0.43

row,Sequence,z-score
1,GGAAAAUGUAAGGACUUGATT against Rnase2b,inactive: -0.718
2,GGAAGUGAUUUACAGUUUCTT against Wwtr1,inactive: 1.11
3,GGACUAUCAUCUGAUGCCATT against Klhl18,active: 2.45
4,GGUAGUUGUUCUAUGUUUUTT against Olfr967,inactive: -1.07
5,GGCAUCAGCCUUCUCAAAGTT against Mmp21,inactive: -0.781
6,GCUGCAUUACACGUUCUAUTT against 4930590J08Rik,inactive: 0.131
7,GCAAAAUAGCCCAGUAUAATT against Pax6,active: -5.02
8,CCAAAGCUAAAACGGGUGGTT against Tppp3,inactive: 0.597
9,CGAGCUGGAUCUGUUUAGATT against Nsmce1,inactive: 0.357
10,GCAGCUUGCUAAAAAUACATT against Lrrc20,inactive: 1.05
11,GAAAAGAGUUUCCACGAGATT against Il19,inactive: 0.0645
12,GGAUUAUGGAGUCUUAAAGTT against Prdx1,inactive: -0.909
13,GCCCGACAGGAGAUAUUUATT against B230340J04Rik,inactive: 1.67
14,GGCUAACUUCCCAUUUAGCTT against Hmga1,inactive: 0.136
15,CGGAUAUCCACAAAUAUCGTT against Atp1b3,inactive: 0.508
16,GGUUGCUCAUUACAGUUAATT against Samd10,inactive: 0.374
17,GCACAACCAUAAUUCCAAATT against Olfr828,inactive: -0.343
18,GCUCGUUGUCCAUAGUAGATT against Olfr1273-ps,inactive: 0.178
19,GCACUUCUACCGGAAAGUUTT against Mad2l1bp,inactive: -0.761
20,GGUAGCUCUGAAAAAUGACTT against Sfmbt1,inactive: 1
21,GCAGAGUCGAAGUGAGAAGTT against Naca,inactive: -0.641
22,GGUAUGUUCAAGAUCAAUATT against Ints8,inactive: 0.793
